Source: publication doi:10.1101/2025.03.28.646059
These are yes or no findings as the source states them, for the method shown.

Chains of the proteins cited; added tags and fusions are not shown. Residues count along the entry.
UniProt P35637, residues 282-376: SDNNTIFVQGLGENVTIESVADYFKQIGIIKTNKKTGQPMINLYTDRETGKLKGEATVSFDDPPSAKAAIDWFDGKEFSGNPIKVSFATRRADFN

Molecular target: Fused in Sarcoma (FUS) RNA-recognition motif, FUS-RRM (aa 282-376) (UniProt P35637)
Test: SEC-MALS

Fused in Sarcoma (FUS) RNA-recognition motif, FUS-RRM (aa 282-376) (from UniProt P35637 282-376) (domain or fragment)
binding: no binding (tested: 1mg/ml)
